Laboratory results published in PubChem BioAssay AID248 (DTP/NCI, 2004).
The list is a part of this screen's results and no random one: it gathers tests that were run many times, whatever their T/C, doses with no T/C, and many T/C values between a quarter and a half above the control. Other doses and runs of a compound stand elsewhere. T/C gives the treated animals as a percentage of the vehicle group. Some entries give survivors of the animals treated and no T/C: the source holds a T/C of zero for them, seemingly a mark for toxic or unscored doses. Some survivor counts are full or nearly so, which does not show that the dose was tolerated: survival well below the control is almost never listed, so the zero probably covers shortened survival too. Survivors were counted at the toxicity check, usually on the fifth day, unless a day is given; later deaths do not show. Schedules are NCI's codes, read here as Q, the interval in days (D) or hours (H), X, the number of doses. Some schedules carry Z or #; the key to these is not given. Some doses were run more than once; the results are listed from low to high. Where survival is the endpoint, the PubChem record calls one and a half times the control and up active, and a quarter to a half above the control has no call in these data; cut-offs in other NCI protocols can differ.

System: L1210 leukemia ip in BDF1 mice, survival T/C
Test: NCI In Vivo Anticancer Drug Screen. Data for tumor model L1210 Leukemia (intraperitoneal) in B6D2F1 (BDF1) mice
Conditions: T/C endpoint: mean survival time, higher T/C = longer survival
[1] = dose: 200.0 mg/kg/injection, schedule: Q01DX001 (ip), vehicle: saline
[2] = dose: 400.0 mg/kg/injection, schedule: Q04DX003 (ip), vehicle: saline
[3] = dose: 400.0 mg/kg/injection, schedule: Q01DX001 (ip), vehicle: saline

With `Cc1ncc(CCl)n1Cc1ccccc1` the T/C (dose: 25.0 mg/kg/injection, schedule: Q04DX002 (ip), vehicle: saline) was 97, 106, 117, 128 % of control, the T/C (dose: 50.0 mg/kg/injection, schedule: Q04DX002 (ip), vehicle: saline) was 90, 93, 101, 117 % of control and the survivor count (dose: 100.0 mg/kg/injection, schedule: Q04DX002 (ip), vehicle: Klucel (hydroxypropylcellulose) (HPC)) was 1 of 3. For the same compound, the T/C (dose: 100.0 mg/kg/injection, schedule: Q04DX002 (ip), vehicle: saline) was 96, 97, 103, 104 % of control, the survivor count [1] was 1 of 6 and the survivor count (dose: 200.0 mg/kg/injection, schedule: Q04DX002 (ip), vehicle: Klucel (hydroxypropylcellulose) (HPC)) was 0 of 3. The survivor count (dose: 200.0 mg/kg/injection, schedule: Q04DX002 (ip), vehicle: saline) was 1 of 3 and 2 of 6, the survivor count (dose: 400.0 mg/kg/injection, schedule: Q04DX002 (ip), vehicle: Klucel (hydroxypropylcellulose) (HPC)) was 0 of 3 and the survivor count (dose: 400.0 mg/kg/injection, schedule: Q04DX002 (ip), vehicle: saline) was 0 of 3 and 0 of 6. The survivor count [2] was 6 of 6.

In the case of `Cc1ccc(Sc2cccc3c(C)c4cccc5c4c(c23)C[S+]5c2ccc(C)cc2)cc1` (stereo not drawn), the survivor count (dose: 100.0 mg/kg/injection, schedule: Q04DX003 (ip), vehicle: saline with Tween-80) is reported as 0 of 6, the survivor count (dose: 200.0 mg/kg/injection, schedule: Q04DX003 (ip), vehicle: saline with Tween-80) is reported as 1 of 6 and the survivor count (dose: 400.0 mg/kg/injection, schedule: Q04DX003 (ip), vehicle: saline with Tween-80) is reported as 0 of 6.

For `O=[N+]([O-])/C=C/c1ccc(Br)cc1`, the survivor count (dose: 150.0 mg/kg/injection, schedule: Q01DX001 (ip), vehicle: saline) was 3 of 6 and the survivor count (dose: 300.0 mg/kg/injection, schedule: Q01DX001 (ip), vehicle: saline) was 1 of 6.

For `CCOC(=O)C(Br)C(Br)c1cccc([N+](=O)[O-])c1` (stereo not drawn), the survivor count (dose: 200.0 mg/kg/injection, schedule: Q01DX009 (ip), vehicle: other) was 3 of 6 and the survivor count (dose: 400.0 mg/kg/injection, schedule: Q01DX009 (ip), vehicle: other) was 1 of 6.

For `c1ccc2c(c1)ccc1c[n+]3c(ccc4ccccc43)cc12`, the survivor count (dose: 100.0 mg/kg/injection, schedule: Q01DX001 (ip), vehicle: carboxymethylcellulose (CMC)) was 2 of 6, the survivor count (dose: 200.0 mg/kg/injection, schedule: Q01DX001 (ip), vehicle: carboxymethylcellulose (CMC)) was 0 of 6 and the survivor count (dose: 400.0 mg/kg/injection, schedule: Q01DX001 (ip), vehicle: carboxymethylcellulose (CMC)) was 0 of 6.

`CCCCNC(C)(C)C(=O)c1cccs1` was tested, and the survivor count [2] was 0 of 6.

With `C=CCOCCC(=O)OCC=C` the survivor count (dose: 200.0 mg/kg/injection, schedule: Q01DX009 (ip), vehicle: Klucel (hydroxypropylcellulose) (HPC)) was 2 of 6 and the survivor count [2] was 1 of 6.

With `CS(=O)(=O)OCc1c(O)c2c(c(O)c1COS(C)(=O)=O)C(=O)C=CC2=O` the survivor count (dose: 100.0 mg/kg/injection, schedule: Q01DX009 (ip), vehicle: water) was 1 of 6, the survivor count (dose: 200.0 mg/kg/injection, schedule: Q01DX009 (ip), vehicle: water) was 0 of 6 and the survivor count (dose: 400.0 mg/kg/injection, schedule: Q01DX009 (ip), vehicle: water) was 0 of 6.

For `O=C(Nc1ccc(NC2=NCCN2)cc1)c1ccc(C(=O)Nc2ccc(NC3=NCCN3)cc2)cc1`, the T/C (dose: 0.65 mg/kg/injection, schedule: Q#A X Z (ip), vehicle: saline) was 132 and 133 % of control, the T/C (dose: 2.0 mg/kg/injection, schedule: Q01DX001 (ip), vehicle: saline) was 131 % of control and the T/C (dose: 8.0 mg/kg/injection, schedule: Q01DX001 (ip), vehicle: saline) was 134 % of control. For the same compound, the T/C (dose: 9.0 mg/kg/injection, schedule: Q01DX001 (ip), vehicle: saline) was 126 and 135 % of control, the T/C (dose: 9.0 mg/kg/injection, schedule: Q03DX Z (ip), vehicle: saline) was 139 % of control and the T/C (dose: 9.0 mg/kg/injection, schedule: Q07DX Z (ip), vehicle: saline) was 146 % of control. The T/C (dose: 10.0 mg/kg/injection, schedule: Q02DX004 (im), vehicle: olive oil, sesame oil, peanut oil) was 147 % of control, the T/C (dose: 12.0 mg/kg/injection, schedule: Q01DX001 (ip), vehicle: carboxymethylcellulose (CMC)) was 137 and 145 % of control and the T/C (dose: 12.0 mg/kg/injection, schedule: Q01DX001 (ip), vehicle: other) was 140 and 143 % of control. The T/C (dose: 14.0 mg/kg/injection, schedule: Q07DX Z (ip), vehicle: saline) was 133 % of control, the survivor count (dose: 15.0 mg/kg/injection, schedule: Q01DX Z (ip), vehicle: methylcellulose (MC)) was 0 of 6 and the T/C (dose: 16.0 mg/kg/injection, schedule: Q01DX001 (ip), vehicle: saline) was 136 % of control. For the same compound, the T/C (dose: 16.0 mg/kg/injection, schedule: Q01DX007 (iv), vehicle: saline) was 136 % of control, the T/C (dose: 16.0 mg/kg/injection, schedule: Q01DX Z (ip), vehicle: saline) was 131 and 134 % of control and the T/C (dose: 18.0 mg/kg/injection, schedule: Q01DX001 (ip), vehicle: carboxymethylcellulose (CMC)) was 147 and 149 % of control. For the same compound, the T/C (dose: 18.0 mg/kg/injection, schedule: Q01DX001 (ip), vehicle: other) was 147 % of control, the T/C (dose: 18.0 mg/kg/injection, schedule: Q01DX001 (ip), vehicle: saline) was 126 and 130 % of control and the T/C (dose: 20.0 mg/kg/injection, schedule: Q01DX001 (im), vehicle: steroid suspending solution) was 148 % of control. The T/C (dose: 21.0 mg/kg/injection, schedule: Q07DX Z (ip), vehicle: saline) was 132 % of control, the T/C (dose: 24.0 mg/kg/injection, schedule: Q01DX001 (ip), vehicle: saline) was 137 % of control and the T/C (dose: 24.0 mg/kg/injection, schedule: Q01DX Z (ip), vehicle: saline) was 132 % of control. For the same compound, the T/C (dose: 26.0 mg/kg/injection, schedule: Q01DX001 (ip), vehicle: carboxymethylcellulose (CMC)) was 149 % of control, the survivor count (dose: 30.0 mg/kg/injection, schedule: Q01DX Z (ip), vehicle: methylcellulose (MC)) was 0 of 6 and the T/C (dose: 36.0 mg/kg/injection, schedule: Q01DX001 (ip), vehicle: saline, evaluated on day 30) was 144 and 194 % of control. For the same compound, the T/C (dose: 36.0 mg/kg/injection, schedule: Q01DX001 (ip), vehicle: saline, run until all animals had died) was 137 and 252 % of control, the T/C (dose: 36.0 mg/kg/injection, schedule: Q01DX007 (iv), vehicle: saline) was 141 % of control and the T/C (dose: 36.0 mg/kg/injection, schedule: Q01DX Z (ip), vehicle: saline) was 126 and 141 % of control. For the same compound, the survivor count (dose: 40.0 mg/kg/injection, schedule: Q01DX010 (sc), vehicle: olive oil, sesame oil, peanut oil) was 6 of 6, the T/C (dose: 54.0 mg/kg/injection, schedule: Q01DX Z (ip), vehicle: saline) was 135 % of control and the survivor count (dose: 60.0 mg/kg/injection, schedule: Q01DX Z (ip), vehicle: methylcellulose (MC)) was 3 of 6. For the same compound, the survivor count (dose: 80.0 mg/kg/injection, schedule: Q01DX010 (sc), vehicle: olive oil, sesame oil, peanut oil) was 6 of 6, the survivor count (dose: 120.0 mg/kg/injection, schedule: Q01DX Z (ip), vehicle: methylcellulose (MC)) was 5 of 6 and the survivor count (dose: 120.0 mg/kg/injection, schedule: Q01DX Z (ip), vehicle: saline) was 6 of 6. The T/C (dose: 135.0 mg/kg/injection, schedule: Q01DX001 (ip), vehicle: carboxymethylcellulose (CMC)) was 134 % of control, the T/C (dose: 135.0 mg/kg/injection, schedule: Q01DX001 (ip), vehicle: other) was 131 % of control and the T/C (dose: 144.0 mg/kg/injection, schedule: Q01DX001 (ip), vehicle: saline, evaluated on day 30) was 140 and 172 % of control. For the same compound, the T/C (dose: 144.0 mg/kg/injection, schedule: Q01DX001 (ip), vehicle: saline, run until all animals had died) was 160 and 301 % of control, the T/C (dose: 288.0 mg/kg/injection, schedule: Q01DX001 (ip), vehicle: saline) was 128 % of control and the T/C (dose: 288.0 mg/kg/injection, schedule: Q01DX010 (oral), vehicle: saline) was 131 and 139 % of control.

In the case of `C=CCOC(=S)S`, the survivor count [3] is reported as 0 of 6.

With `CN1CCN(c2c3c(nc4ccccc24)CCCC3)CC1` the survivor count [1] was 0 of 4 and the survivor count [3] was 0 of 4.
